In article doi:10.1101/2020.12.08.415711:
Results are given in words; binding and its absence hold for the method and conditions named. Binding calls can cover weak binding; strength is not graded here. For part of these data: In cells and extracts the contact can be indirect.

Protein sequences, listed by entry. Tags and fused reporters are not part of them. Lines headed by an entry give the natural chain unless they say otherwise; changes in a name come on top.
UniProt Q9SXA1: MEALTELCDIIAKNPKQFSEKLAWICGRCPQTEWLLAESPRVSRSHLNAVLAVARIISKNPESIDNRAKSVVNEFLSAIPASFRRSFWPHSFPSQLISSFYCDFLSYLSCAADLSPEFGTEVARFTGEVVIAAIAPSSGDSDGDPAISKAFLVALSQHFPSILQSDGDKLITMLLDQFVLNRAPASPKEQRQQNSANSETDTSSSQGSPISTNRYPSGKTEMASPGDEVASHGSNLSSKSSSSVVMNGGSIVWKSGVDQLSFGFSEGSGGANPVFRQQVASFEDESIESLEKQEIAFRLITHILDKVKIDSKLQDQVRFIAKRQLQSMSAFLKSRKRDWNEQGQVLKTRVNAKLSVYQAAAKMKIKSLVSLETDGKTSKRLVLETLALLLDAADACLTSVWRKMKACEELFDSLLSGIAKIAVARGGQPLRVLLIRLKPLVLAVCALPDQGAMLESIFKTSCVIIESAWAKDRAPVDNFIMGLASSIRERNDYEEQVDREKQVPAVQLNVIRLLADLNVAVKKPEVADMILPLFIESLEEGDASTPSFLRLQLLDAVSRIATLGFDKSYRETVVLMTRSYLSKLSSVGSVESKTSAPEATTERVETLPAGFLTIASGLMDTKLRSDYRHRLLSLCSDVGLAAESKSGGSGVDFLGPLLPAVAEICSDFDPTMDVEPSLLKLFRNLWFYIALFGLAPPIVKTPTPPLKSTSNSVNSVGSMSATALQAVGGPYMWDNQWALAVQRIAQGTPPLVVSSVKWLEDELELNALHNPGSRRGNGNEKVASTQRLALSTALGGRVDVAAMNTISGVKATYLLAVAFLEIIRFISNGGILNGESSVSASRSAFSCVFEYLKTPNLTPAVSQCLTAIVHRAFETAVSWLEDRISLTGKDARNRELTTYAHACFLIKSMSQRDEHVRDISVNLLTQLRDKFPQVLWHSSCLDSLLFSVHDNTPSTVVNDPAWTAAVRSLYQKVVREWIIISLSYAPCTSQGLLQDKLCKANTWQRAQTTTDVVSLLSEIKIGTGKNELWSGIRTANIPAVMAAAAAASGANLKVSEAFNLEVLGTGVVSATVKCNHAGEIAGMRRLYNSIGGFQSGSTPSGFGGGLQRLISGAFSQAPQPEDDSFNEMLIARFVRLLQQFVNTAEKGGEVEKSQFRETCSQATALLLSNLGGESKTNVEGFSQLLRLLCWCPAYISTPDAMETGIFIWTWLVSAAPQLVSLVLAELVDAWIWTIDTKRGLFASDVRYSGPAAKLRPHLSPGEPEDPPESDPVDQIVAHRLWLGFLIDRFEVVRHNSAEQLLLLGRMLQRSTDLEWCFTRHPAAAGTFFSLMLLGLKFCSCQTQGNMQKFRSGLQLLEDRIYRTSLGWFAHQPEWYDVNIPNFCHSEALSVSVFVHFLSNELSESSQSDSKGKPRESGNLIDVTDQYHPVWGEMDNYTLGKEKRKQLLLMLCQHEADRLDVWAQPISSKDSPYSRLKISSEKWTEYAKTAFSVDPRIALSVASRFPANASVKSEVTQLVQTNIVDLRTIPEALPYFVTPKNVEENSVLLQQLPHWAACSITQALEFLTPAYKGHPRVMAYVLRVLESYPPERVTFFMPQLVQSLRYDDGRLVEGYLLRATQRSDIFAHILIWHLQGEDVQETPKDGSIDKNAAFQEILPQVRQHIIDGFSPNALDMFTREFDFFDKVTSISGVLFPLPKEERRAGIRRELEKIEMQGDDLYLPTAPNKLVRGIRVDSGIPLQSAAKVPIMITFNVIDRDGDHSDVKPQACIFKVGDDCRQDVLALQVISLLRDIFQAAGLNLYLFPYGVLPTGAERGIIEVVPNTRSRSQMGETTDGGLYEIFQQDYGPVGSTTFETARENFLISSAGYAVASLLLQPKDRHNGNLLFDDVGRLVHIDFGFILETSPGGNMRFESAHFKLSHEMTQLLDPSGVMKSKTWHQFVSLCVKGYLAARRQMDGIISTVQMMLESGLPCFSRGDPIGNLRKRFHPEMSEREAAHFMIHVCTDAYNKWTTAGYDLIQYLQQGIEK

Columns and labels:
[1] = target: PI4Kα1, large N-terminal part (bait of the yeast-two-hybrid screen) (Arabidopsis thaliana) (UniProt Q9SXA1); experiment: two-hybrid
[2] = target: HYC2-mCITRINE (Arabidopsis thaliana); experiment: co-IP

binding [1]	binding [2]	Binder
binds	–	NPG1 (NO POLLEN …ON 1), clones of the yeast-two-hybrid library (domain or fragment, UniProt Q8GZN1 444-704) RNLKAASRYAKEFIDATGGSVLKGWRFLALVLSAQQRFSEAEVVTDAALDETAKWDQGPLLRLKAKLKISQSNPTEAVETYRYLLALVQAQRKSFGPLRTLSQMEEDKVNEFEVWHGLAYLYSSLSHWNDVEVCLKKAGELKQYSASMLHTEGRMWEGRKEFKPALAAFLDGLLLDGSSVPCKVAVGALLSERGKDHQPTLPVARSLLSDALRIDPTNRKAWYYLGMVHKSDGRIADATDCFQAASMLEESDPIESFSTIL
binds	–	NPGR2, clone of the yeast-two-hybrid library (domain or fragment, UniProt Q66GN3 414-739) LGKECSQLDGAARFVLGITLTESSRMAVTETERIARQSEGIQALESADMTNPRVVHRLALENAEQRKLDSALAYAKEALKLGAESDLEVWLLLARVLSAQKRFSDAETIVDAALNETGKWEQGKLLRLKAKLRLAKGEVKDAIKTYTQLLALLQVQSKSFNSAKKLPKGYVKELMSLELGTWHDLAHIYINLSQWRDAESCLSRSRLIAPYSSVRYHIEGVLYNRRGQLEEAMEAFTTALDIDPMHVPSLTSKAEILLEVGNRSGIAVVRSFLMEALRIDRLNHSAWYNLGKMFKAEGSVSSMQEAVECFQAAVTLEETMPVEPFR
–	binds	NPGR2, endogenous (protein, UniProt Q66GN3 1-739) MKNSEIRPEKLHLRKLRKSLRKIRMKCLCSGEQMRHREEEDKKSEVGVGRDYNGSSALSTAESENAKKLDNGNIEEAELSLRETSSLNYEEARALLGRIEYQKGNIEAALRVFEGIDINGITVKMKTALTVREDRKHRRRSKGGFSTAPSPAMSKHAVSLLFEAIFLKAKSLQRLGRFQEAAESCRVILDIVETSLAEGASDNVTGDIKLQETLTKAVELLPELWKLADSPRDAILSYRRALLNHWKLDPETTARIQKEYAVFLLYSGEEAVPPNLRSQTEGSFIPRNNVEEAILLLMLLLRKVNLKRISWDAAILDHLSFALTIAGDLTALAKQFEELSPELLDQRELYHTLSLCYQGAGEGLVALGLLRKLFSEREDPNRTSGLLMASKICGERSGLAEEGLDYARKAIGNLGKECSQLDGAARFVLGITLTESSRMAVTETERIARQSEGIQALESADMTNPRVVHRLALENAEQRKLDSALAYAKEALKLGAESDLEVWLLLARVLSAQKRFSDAETIVDAALNETGKWEQGKLLRLKAKLRLAKGEVKDAIKTYTQLLALLQVQSKSFNSAKKLPKGYVKELMSLELGTWHDLAHIYINLSQWRDAESCLSRSRLIAPYSSVRYHIEGVLYNRRGQLEEAMEAFTTALDIDPMHVPSLTSKAEILLEVGNRSGIAVVRSFLMEALRIDRLNHSAWYNLGKMFKAEGSVSSMQEAVECFQAAVTLEETMPVEPFR
